{"source": "paper PMC6636751", "molecules": {"B1": {"name": "ASK1-TBD-His (thioredoxin-binding domain of human ASK1, residues 88-302, 6xHis tag) (domain or fragment, UniProt Q99683 88-302)", "chain": "SRRTTVAYVINEASQGQLVVAESEALQSLREACETVGATLETLHFGKLDFGETTVLDRFYNADIAVVEMSDAFRQPSLFYHLGVRESFSMANNIILYCDTNSDSLQSLKEIICQKNTMCTGNYTFVPYMITPHNKVYCCDSSFMKGLTELMQPNFELLLGPICLPLVDRFIQLLKVAQASSSQYFRESILNDIRKARNLYTGKELAAELARIRQR"}}, "key": {"[1]": {"target": "T1, ASK1-TBD-HA (thioredoxin-binding domain of human ASK1, residues 88-302, HA tag) (human) (UniProt Q99683)", "T1 sequence": "B1 chain", "assay": "co-IP; HEK293T cotransfected with Trxlp-GFP and ASK1-TBD-HA; lysate (20 mM Tris, 100 mM KCl, 0.1% NP-40, 1 mM EDTA, 10% glycerol) precipitated with HA beads; blots with anti-GFP and anti-HA"}, "[2]": {"target": "T2, ASK1-N (N-terminal fragment of ASK1 with the N-terminal coiled-coil domain, sequence 1-400), HA- or Flag-tagged (human) (UniProt Q99683)", "T2 sequence": "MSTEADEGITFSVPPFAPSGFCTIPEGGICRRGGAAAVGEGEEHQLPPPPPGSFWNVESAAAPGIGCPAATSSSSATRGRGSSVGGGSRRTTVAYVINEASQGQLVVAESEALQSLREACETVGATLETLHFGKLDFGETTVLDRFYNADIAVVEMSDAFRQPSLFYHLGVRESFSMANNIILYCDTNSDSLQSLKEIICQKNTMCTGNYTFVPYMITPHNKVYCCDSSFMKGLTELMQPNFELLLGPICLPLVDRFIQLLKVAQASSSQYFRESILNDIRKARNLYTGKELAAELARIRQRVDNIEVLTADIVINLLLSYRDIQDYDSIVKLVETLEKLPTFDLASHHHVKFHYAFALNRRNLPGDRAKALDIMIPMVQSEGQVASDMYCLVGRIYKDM", "assay": "co-IP; HEK293T transfected with combinations of ASK1-N-HA, ASK1-N-Flag, Trxlp-HA and human TRX1-HA; lysates precipitated with anti-flag antibody; blots with anti-Flag or anti-HA"}, "[3]": {"target": "Trxlp-MBP (Edwardsiella piscicida EIB202)", "assay": "pull-down; purified Trxlp-MBP on MBP beads incubated with ASK1-TBD-His for 4 h at 4 °C, eluted with 20 mM maltose (also the reverse on His beads, eluted with 200 mM imidazole); blots with anti-His or anti-MBP; both purified"}}, "note": "No constants are given. Whether binding was seen depends on the method and setting. Binding calls can cover weak binding; strength is not graded here. Sequences can lack the tags named with a protein. For part of these data: Binding seen in cells or lysates may run through a third protein."}
{"molecule": "Trxlp-GFP (Edwardsiella piscicida thioredoxin-like protein with GFP tag)", "values": [{"measurement": "binding", "setting": "[1]", "result": "binds"}]}
{"molecule": "Trxlp-HA (Edwardsiella piscicida EIB202)", "values": [{"measurement": "binding", "setting": "[2]", "result": "binds"}]}
{"molecule": "B1", "values": [{"measurement": "binding", "setting": "[3]", "result": "binds"}]}
